In the supplement of paper PMC10849652:
Some of the results follow.

The chains behind the UniProt entries cited, without tags or fusion partners. Where a name states a change or a piece, a line headed by the entry shows the natural chain unless it says otherwise.
UniProt Q9NWZ5: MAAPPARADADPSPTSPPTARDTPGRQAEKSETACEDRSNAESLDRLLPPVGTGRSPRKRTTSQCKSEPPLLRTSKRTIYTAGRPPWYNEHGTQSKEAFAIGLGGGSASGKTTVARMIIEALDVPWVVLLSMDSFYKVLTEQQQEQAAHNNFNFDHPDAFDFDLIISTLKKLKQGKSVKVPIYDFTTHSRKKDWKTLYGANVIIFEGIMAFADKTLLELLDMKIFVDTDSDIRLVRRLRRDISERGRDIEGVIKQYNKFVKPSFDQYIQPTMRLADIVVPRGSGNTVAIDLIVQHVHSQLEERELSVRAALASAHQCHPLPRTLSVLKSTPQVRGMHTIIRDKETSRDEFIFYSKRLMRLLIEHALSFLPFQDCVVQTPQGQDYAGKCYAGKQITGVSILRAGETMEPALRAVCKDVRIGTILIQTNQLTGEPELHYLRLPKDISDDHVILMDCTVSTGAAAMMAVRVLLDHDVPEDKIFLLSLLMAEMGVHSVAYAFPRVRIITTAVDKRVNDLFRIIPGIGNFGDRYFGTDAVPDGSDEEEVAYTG
UniProt Q9HA47: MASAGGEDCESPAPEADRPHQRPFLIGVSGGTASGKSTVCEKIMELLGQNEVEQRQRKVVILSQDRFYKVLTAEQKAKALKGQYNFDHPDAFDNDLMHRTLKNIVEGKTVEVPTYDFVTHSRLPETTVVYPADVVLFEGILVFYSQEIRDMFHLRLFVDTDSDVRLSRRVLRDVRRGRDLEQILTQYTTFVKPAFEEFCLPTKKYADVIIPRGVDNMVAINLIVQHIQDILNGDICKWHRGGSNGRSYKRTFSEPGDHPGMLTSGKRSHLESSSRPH
UniProt Q9P0L0: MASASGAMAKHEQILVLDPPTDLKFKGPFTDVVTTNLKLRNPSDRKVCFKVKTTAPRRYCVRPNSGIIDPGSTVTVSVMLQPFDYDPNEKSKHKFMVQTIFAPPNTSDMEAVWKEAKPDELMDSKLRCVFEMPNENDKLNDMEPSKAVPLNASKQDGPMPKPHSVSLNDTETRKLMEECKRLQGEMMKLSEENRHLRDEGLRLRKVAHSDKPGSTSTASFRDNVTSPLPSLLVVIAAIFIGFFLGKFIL
UniProt Q53GS9: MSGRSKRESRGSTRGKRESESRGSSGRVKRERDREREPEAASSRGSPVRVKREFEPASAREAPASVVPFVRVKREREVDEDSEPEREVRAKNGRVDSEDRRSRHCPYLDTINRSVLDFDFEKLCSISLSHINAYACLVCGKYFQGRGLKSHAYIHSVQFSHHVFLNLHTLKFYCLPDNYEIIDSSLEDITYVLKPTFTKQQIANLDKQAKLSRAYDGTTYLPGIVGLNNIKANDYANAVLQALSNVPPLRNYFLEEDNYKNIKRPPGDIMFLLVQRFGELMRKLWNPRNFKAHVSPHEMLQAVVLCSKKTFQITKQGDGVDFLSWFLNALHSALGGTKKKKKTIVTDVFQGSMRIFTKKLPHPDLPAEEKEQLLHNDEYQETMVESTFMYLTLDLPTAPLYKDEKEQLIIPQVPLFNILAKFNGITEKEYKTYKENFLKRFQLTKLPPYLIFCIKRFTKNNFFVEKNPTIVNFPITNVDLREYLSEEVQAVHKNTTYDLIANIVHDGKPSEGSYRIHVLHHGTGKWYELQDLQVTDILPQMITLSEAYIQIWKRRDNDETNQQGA
UniProt P40818: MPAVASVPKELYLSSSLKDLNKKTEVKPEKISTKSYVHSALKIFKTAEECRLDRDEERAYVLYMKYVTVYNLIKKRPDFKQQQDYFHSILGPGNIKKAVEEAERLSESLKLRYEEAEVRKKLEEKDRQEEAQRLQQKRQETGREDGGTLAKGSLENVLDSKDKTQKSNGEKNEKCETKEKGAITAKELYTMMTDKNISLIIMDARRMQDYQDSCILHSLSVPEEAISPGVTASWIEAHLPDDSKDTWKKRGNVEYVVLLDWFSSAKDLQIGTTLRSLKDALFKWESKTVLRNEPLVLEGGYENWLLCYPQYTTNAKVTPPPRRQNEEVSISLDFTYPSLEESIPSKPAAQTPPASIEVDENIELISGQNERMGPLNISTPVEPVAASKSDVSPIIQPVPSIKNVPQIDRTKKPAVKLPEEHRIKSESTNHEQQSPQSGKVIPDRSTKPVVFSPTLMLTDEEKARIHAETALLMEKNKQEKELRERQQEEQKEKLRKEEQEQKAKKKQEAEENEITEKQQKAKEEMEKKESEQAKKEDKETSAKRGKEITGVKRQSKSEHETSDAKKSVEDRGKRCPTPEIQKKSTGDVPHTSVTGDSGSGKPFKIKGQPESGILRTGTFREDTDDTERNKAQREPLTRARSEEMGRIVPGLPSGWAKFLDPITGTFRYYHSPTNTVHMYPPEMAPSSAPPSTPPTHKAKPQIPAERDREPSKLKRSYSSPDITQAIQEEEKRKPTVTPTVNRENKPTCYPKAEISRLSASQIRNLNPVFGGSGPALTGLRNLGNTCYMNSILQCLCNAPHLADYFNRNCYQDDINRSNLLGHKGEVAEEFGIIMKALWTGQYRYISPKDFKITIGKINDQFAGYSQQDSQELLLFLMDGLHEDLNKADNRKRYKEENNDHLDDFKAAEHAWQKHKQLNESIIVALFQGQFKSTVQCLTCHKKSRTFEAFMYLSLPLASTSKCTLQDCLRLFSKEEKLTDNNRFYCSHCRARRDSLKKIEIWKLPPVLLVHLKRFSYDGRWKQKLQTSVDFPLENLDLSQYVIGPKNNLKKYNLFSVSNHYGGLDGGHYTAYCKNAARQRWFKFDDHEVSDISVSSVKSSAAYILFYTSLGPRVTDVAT
UniProt P47985: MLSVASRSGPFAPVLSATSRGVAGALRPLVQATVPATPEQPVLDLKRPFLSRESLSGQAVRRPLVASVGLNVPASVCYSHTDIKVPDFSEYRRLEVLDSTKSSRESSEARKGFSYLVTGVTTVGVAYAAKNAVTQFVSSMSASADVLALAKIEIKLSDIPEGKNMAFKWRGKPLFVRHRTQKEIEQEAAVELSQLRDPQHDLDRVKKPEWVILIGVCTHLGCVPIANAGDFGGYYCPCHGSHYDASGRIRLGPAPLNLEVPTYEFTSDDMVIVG
UniProt Q9UPU5: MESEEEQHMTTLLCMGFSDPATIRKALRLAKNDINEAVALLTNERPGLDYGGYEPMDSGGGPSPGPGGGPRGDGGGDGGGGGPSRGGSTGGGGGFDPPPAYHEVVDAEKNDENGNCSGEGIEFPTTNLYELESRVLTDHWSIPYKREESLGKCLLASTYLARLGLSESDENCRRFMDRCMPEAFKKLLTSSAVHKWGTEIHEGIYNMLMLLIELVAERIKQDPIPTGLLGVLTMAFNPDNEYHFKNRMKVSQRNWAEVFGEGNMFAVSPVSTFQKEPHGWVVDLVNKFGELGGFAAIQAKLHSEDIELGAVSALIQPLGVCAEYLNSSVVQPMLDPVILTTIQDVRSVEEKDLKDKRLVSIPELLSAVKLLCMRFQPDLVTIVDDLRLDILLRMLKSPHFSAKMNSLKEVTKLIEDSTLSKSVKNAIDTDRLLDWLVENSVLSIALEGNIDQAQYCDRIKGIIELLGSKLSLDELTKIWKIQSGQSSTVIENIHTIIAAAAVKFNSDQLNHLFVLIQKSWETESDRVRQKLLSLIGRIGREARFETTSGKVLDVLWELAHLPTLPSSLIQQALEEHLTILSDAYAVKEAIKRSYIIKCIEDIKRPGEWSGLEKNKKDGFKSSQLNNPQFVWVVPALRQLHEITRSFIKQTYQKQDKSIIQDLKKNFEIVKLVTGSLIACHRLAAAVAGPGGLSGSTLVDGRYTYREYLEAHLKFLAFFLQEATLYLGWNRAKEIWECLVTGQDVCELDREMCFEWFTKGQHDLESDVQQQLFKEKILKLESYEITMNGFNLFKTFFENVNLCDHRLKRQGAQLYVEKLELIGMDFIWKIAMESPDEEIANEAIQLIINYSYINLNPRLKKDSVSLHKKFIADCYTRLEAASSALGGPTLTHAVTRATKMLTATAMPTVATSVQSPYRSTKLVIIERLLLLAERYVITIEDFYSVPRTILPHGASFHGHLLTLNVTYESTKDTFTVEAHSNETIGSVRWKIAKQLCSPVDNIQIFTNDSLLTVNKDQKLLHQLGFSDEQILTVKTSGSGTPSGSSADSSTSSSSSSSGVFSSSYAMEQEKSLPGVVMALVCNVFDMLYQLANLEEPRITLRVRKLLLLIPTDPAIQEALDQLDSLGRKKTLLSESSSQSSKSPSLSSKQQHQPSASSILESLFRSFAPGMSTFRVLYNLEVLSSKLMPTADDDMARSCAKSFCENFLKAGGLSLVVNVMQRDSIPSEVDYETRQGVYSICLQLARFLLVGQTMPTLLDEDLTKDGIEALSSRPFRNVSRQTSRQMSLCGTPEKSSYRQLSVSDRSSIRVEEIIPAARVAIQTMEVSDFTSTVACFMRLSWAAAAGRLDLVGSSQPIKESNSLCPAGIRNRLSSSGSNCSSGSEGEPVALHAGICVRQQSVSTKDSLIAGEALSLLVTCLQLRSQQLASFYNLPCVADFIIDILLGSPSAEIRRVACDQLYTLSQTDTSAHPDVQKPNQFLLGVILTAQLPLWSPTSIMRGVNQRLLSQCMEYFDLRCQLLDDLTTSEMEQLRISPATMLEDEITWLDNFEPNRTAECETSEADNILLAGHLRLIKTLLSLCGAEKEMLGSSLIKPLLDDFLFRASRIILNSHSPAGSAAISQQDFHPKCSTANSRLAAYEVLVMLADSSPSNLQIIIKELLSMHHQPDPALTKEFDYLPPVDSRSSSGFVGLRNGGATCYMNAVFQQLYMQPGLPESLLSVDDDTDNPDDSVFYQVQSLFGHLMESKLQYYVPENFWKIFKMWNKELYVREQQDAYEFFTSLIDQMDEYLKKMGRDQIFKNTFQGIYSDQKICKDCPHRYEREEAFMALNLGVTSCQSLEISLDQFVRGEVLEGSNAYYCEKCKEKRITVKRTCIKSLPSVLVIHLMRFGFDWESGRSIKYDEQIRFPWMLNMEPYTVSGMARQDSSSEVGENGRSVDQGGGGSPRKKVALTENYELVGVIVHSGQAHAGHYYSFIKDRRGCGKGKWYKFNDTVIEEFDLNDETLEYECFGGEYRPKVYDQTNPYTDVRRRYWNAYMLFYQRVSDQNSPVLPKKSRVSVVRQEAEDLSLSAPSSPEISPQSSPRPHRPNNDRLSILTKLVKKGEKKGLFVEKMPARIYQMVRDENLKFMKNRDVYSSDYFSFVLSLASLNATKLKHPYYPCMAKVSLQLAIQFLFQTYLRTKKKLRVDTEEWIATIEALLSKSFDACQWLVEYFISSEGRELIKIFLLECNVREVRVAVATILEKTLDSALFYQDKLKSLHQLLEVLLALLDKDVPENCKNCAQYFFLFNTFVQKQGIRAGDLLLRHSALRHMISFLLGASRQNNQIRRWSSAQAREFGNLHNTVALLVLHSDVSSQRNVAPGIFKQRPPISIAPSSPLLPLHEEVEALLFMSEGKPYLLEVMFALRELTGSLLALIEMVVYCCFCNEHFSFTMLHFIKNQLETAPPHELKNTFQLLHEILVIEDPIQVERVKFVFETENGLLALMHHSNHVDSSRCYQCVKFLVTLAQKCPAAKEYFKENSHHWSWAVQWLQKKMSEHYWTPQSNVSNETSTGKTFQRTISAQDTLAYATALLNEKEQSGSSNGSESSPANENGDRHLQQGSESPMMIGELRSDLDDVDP
UniProt Q15853: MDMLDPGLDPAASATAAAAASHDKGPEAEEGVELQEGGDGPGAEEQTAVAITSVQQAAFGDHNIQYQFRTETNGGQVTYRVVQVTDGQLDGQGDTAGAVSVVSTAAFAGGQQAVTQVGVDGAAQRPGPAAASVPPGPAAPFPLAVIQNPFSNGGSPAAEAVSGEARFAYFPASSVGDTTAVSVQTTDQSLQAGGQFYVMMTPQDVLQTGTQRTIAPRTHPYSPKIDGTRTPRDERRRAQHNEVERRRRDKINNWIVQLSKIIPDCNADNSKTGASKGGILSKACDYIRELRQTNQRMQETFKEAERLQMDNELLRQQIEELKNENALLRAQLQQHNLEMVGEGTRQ
UniProt Q96BW1: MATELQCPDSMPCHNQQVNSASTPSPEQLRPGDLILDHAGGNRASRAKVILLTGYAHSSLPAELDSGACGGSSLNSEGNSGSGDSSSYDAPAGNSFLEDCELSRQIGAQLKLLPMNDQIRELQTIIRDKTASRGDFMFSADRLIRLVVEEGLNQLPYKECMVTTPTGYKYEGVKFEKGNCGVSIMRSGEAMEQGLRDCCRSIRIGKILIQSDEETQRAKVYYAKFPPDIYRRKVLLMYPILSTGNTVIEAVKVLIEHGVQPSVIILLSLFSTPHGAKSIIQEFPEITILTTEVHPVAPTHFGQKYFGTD
UniProt Q9BZX2: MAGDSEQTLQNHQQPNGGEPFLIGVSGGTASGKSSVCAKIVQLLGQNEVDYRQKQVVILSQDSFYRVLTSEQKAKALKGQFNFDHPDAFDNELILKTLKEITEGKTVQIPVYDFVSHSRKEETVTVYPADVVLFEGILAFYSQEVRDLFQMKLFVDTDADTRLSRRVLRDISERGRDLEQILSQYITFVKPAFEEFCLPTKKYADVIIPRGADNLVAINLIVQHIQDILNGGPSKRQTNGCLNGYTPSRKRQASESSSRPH

Tests used:
Test in all cases: log2 fold change, soluble protein after heating vs DMSO (PISA); higher = thermal stabilisation; K562 cells, 10 uM, 30 min; active = over 0.2 and 3.5 SD of the protein, either way, in both replicates (recomputed)
[1] = compound: COC1=CC=C(C=C1)CN2C=CC3=C2C=C(C=C3)C(=O)NO
Outline: (§1)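 For each measurement, 10 μM compound was applied for 30 min to K562 cells at 2×10^6 cells/mL. Aliquots were heated for 3 min across 48°C-58°C, pooled, and extracted in PBS with 0.5% NP-40 at 4°C; the supernatant after 21,000xg for 90 min was soluble protein. This was quantified by TMTpro 16plex LC-MS/MS with channel sums equalised, and thermal stability was reported relative to control samples from duplicates, on a log2 fold-change scale.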

filanesib = compound: CON(C)C(=O)N1N=C(c2cc(F)ccc2F)S[C@@]1(CCCN)c1ccccc1 [filanesib]
Outline: as §1

zotarolimus = compound: CO[C@H]1C[C@@H]2CC[C@@H](C)[C@@](O)(O2)C(=O)C(=O)N2CCCC[C@H]2C(=O)O[C@H]([C@H](C)C[C@@H]2CC[C@H](n3cnnn3)[C@H](OC)C2)CC(=O)[C@H](C)/C=C(\C)[C@@H](O)[C@@H](OC)C(=O)[C@H](C)C[C@H](C)/C=C/C=C/C=C/1C [zotarolimus]
Outline: as §1

idasanutlin = compound: COc1cc(C(=O)O)ccc1NC(=O)[C@@H]1N[C@@H](CC(C)(C)C)[C@](C#N)(c2ccc(Cl)cc2F)[C@H]1c1cccc(Cl)c1F [idasanutlin]
Outline: as §1

alisertib = compound: COc1cc(Nc2ncc3c(n2)-c2ccc(Cl)cc2C(c2c(F)cccc2OC)=NC3)ccc1C(=O)O [alisertib]
Outline: as §1

[2] = compound: COc1cc2nc(-c3cc(F)ccc3O)nc(N[C@@H]3CNC[C@H]3C(C)(C)O)c2cc1OC
Outline: as §1

gefitinib = compound: COc1cc2ncnc(Nc3ccc(F)c(Cl)c3)c2cc1OCCCN1CCOCC1 [gefitinib]
Outline: as §1

[3] = compound: COc1cccc2cc(-c3nc([C@H]4CC[C@H](C(=O)O)CC4)n4ncnc(N)c34)[nH]c12
Outline: as §1

lapatinib = compound: CS(=O)(=O)CCNCc1ccc(-c2ccc3ncnc(Nc4ccc(OCc5cccc(F)c5)c(Cl)c4)c3c2)o1 [lapatinib]
Outline: as §1

pictilisib = compound: CS(=O)(=O)N1CCN(Cc2cc3nc(-c4cccc5[nH]ncc45)nc(N4CCOCC4)c3s2)CC1 [pictilisib]
Outline: as §1

[4] = compound: CS(=O)(=O)c1ccc(-c2cnc(N)c(C(=O)Nc3ccccc3)n2)cc1
Outline: as §1

crizotinib = compound: C[C@@H](Oc1cc(-c2cnn(C3CCNCC3)c2)cnc1N)c1c(Cl)ccc(F)c1Cl [crizotinib]
Outline: as §1

[5] = compound: C[C@@H]1COCCN1C2=NC(=NC(=C2)C3(CC3)S(=O)(=O)C)C4=C5C=CNC5=CC=C4
Outline: as §1

[6] = compound: C[C@H](C1=CC=C(C=C1)C(=O)NC2=C3C=CNC3=NC=C2)N
Outline: as §1

duvelisib = compound: C[C@H](Nc1ncnc2nc[nH]c12)c1cc2cccc(Cl)c2c(=O)n1-c1ccccc1 [duvelisib]
Outline: as §1

gandotinib = compound: Cc1cc(Nc2cc(CN3CCOCC3)c3nc(C)c(Cc4ccc(Cl)cc4F)n3n2)n[nH]1 [gandotinib]
Outline: as §1

tozasertib = compound: Cc1cc(Nc2cc(N3CCN(C)CC3)nc(Sc3ccc(NC(=O)C4CC4)cc3)n2)n[nH]1 [tozasertib]
Outline: as §1

[7] = compound: Cc1cc(SCc2sc(-c3ccc(C(F)(F)F)cc3)nc2C)ccc1OCC(=O)O
Outline: as §1

doramapimod = compound: Cc1ccc(-n2nc(C(C)(C)C)cc2NC(=O)Nc2ccc(OCCN3CCOCC3)c3ccccc23)cc1 [doramapimod]
Outline: as §1

ispinesib = compound: Cc1ccc(C(=O)N(CCCN)[C@@H](c2nc3cc(Cl)ccc3c(=O)n2Cc2ccccc2)C(C)C)cc1 [ispinesib]
Outline: as §1

Measured: log2 fold change

UBXN1 (UniProt Q04323)
inactive: [1] -0.04 | filanesib -0.023 | zotarolimus 0.019 | idasanutlin 0.022 | alisertib 0.037 | [2] 0.041 | gefitinib -0.008 | [3] 0 | lapatinib -0.053 | pictilisib -0.057 | [4] 0.016 | crizotinib 0.055 | [5] 0.029 | [6] -0.034 | duvelisib 0.031 | gandotinib -0.013 | tozasertib 0.022 | [7] 0.026 | doramapimod -0.002 | ispinesib 0.041

UFSP2 (UniProt Q9NUQ7)
inactive: [1] -0.011 | filanesib -0.04 | zotarolimus 0.088 | idasanutlin -0.026 | alisertib -0.028 | [2] 0.157 | gefitinib 0.006 | [3] 0.002 | lapatinib 0.017 | pictilisib -0.006 | [4] 0.036 | crizotinib -0.047 | [5] 0.165 | [6] 0.057 | duvelisib 0.082 | gandotinib -0.007 | tozasertib -0.008 | [7] 0.056 | doramapimod -0.034 | ispinesib 0.017

USP5 (UniProt P45974)
inactive: [1] -0.011 | filanesib -0.015 | zotarolimus 0.037 | idasanutlin -0.058 | alisertib -0.043 | [2] 0.13 | gefitinib 0.027 | [3] 0.049 | lapatinib 0.101 | pictilisib 0.035 | [4] 0.042 | crizotinib 0.035 | [5] 0.012 | [6] -0.118 | duvelisib 0.034 | gandotinib -0.021 | tozasertib 0.034 | [7] 0.013 | doramapimod -0.035 | ispinesib 0.081

UCKL1 (UniProt Q9NWZ5)
inactive: [1] -0.05 | filanesib -0.064 | zotarolimus -0.028 | idasanutlin -0.126 | alisertib -0.053 | [2] 0.138 | gefitinib 0.028 | [3] 0.066 | lapatinib -0.06 | pictilisib 0.053 | [4] 0.057 | crizotinib 0.026 | [5] 0.062 | [6] 0.017 | duvelisib 0.107 | gandotinib 0.054 | tozasertib 0 | [7] 0.125 | doramapimod 0.032 | ispinesib 0.034

UCK1 (UniProt Q9HA47)
inactive: [1] -0.012 | filanesib -0.076 | zotarolimus -0.015 | idasanutlin -0.03 | alisertib -0.029 | [2] -0.042 | gefitinib 0.005 | [3] -0.039 | lapatinib -0.043 | pictilisib -0.051 | [4] 0.025 | crizotinib 0.007 | [5] -0.237 | [6] -0.09 | duvelisib 0.05 | gandotinib -0.051 | tozasertib -0.006 | [7] -0.053 | doramapimod -0.001 | ispinesib 0.062

VAPA (UniProt Q9P0L0)
inactive: [1] -0.056 | filanesib -0.014 | zotarolimus -0.017 | idasanutlin -0.034 | alisertib -0.025 | [2] 0.028 | gefitinib 0.036 | [3] 0.036 | lapatinib -0.057 | pictilisib -0.277 | [4] -0.015 | crizotinib 0.04 | [5] 0.02 | [6] 0.017 | duvelisib 0.027 | gandotinib -0.184 | tozasertib 0.013 | [7] 0.01 | doramapimod 0.009 | ispinesib 0.073

USP39 (UniProt Q53GS9)
inactive: [1] -0.039 | filanesib 0.107 | zotarolimus -0.026 | idasanutlin 0.089 | alisertib -0.02 | [2] 0.064 | gefitinib 0.009 | [3] -0.008 | lapatinib 0.027 | pictilisib 0.009 | [4] 0.012 | crizotinib 0.013 | [5] -0.088 | [6] 0.016 | duvelisib -0.056 | gandotinib 0.076 | tozasertib -0.012 | [7] 0.02 | doramapimod -0.002 | ispinesib -0.013

USP8 (UniProt P40818)
inactive: [1] -0.028 | filanesib -0.174 | zotarolimus 0.043 | idasanutlin 0.016 | alisertib -0.013 | [2] -0.019 | gefitinib -0.059 | [3] -0.16 | lapatinib 0.08 | pictilisib 0.039 | [4] 0.077 | crizotinib -0.2 | [5] -0.08 | [6] 0.15 | duvelisib 0.004 | gandotinib -0.04 | tozasertib -0.02 | [7] 0.107 | doramapimod 0.094 | ispinesib -0.111

UQCRFS1 (UniProt P47985)
inactive: [1] 0 | filanesib -0.089 | zotarolimus 0 | idasanutlin 0.05 | alisertib -0.089 | [2] 0.019 | gefitinib 0.003 | [3] 0.006 | lapatinib -0.03 | pictilisib 0.016 | [4] -0.014 | crizotinib 0.064 | [5] 0.059 | [6] -0.106 | duvelisib 0.045 | gandotinib -0.035 | tozasertib -0.033 | [7] -0.055 | doramapimod -0.058 | ispinesib 0.008

Copied from the results shown (two entries):
USP39 (UniProt Q53GS9)
inactive: [1] -0.039 | filanesib 0.107 | zotarolimus -0.026 | idasanutlin 0.089 | alisertib -0.02 | [2] 0.064 | gefitinib 0.009 | [3] -0.008 | lapatinib 0.027 | pictilisib 0.009 | [4] 0.012 | crizotinib 0.013 | [5] -0.088 | [6] 0.016 | duvelisib -0.056 | gandotinib 0.076 | tozasertib -0.012 | [7] 0.02 | doramapimod -0.002 | ispinesib -0.013

USP8 (UniProt P40818)
inactive: [1] -0.028 | filanesib -0.174 | zotarolimus 0.043 | idasanutlin 0.016 | alisertib -0.013 | [2] -0.019 | gefitinib -0.059 | [3] -0.16 | lapatinib 0.08 | pictilisib 0.039 | [4] 0.077 | crizotinib -0.2 | [5] -0.08 | [6] 0.15 | duvelisib 0.004 | gandotinib -0.04 | tozasertib -0.02 | [7] 0.107 | doramapimod 0.094 | ispinesib -0.111

(cont.)

USP24 (UniProt Q9UPU5)
active: zotarolimus 0.397 | idasanutlin -0.342 | [3] 0.385 | [5] 0.396
inactive: [1] -0.03 | filanesib -0.179 | alisertib -0.008 | [2] 0.116 | gefitinib 0.099 | lapatinib 0.019 | pictilisib 0.258 | [4] 0.062 | crizotinib 0.204 | [6] 0.015 | gandotinib -0.213 | [7] -0.017 | doramapimod -0.041 | ispinesib 0.115

USF2 (UniProt Q15853)
inactive: [1] 0.101 | filanesib -0.042 | zotarolimus 0.014 | idasanutlin 0.016 | alisertib -0.22 | [2] 0.007 | gefitinib 0.077 | [3] -0.1 | lapatinib -0.027 | pictilisib -0.018 | [4] -0.067 | crizotinib -0.071 | [5] 0.025 | [6] 0.036 | duvelisib 0.007 | gandotinib -0.014 | tozasertib 0.053 | [7] -0.053 | doramapimod 0.07 | ispinesib -0.019

USP9X (UniProt Q93008)
inactive: [1] -0.02 | filanesib -0.017 | zotarolimus 0.018 | idasanutlin -0.096 | alisertib -0.02 | [2] 0.029 | gefitinib -0.007 | [3] -0.008 | lapatinib -0.027 | pictilisib -0.033 | [4] -0.008 | crizotinib -0.159 | [5] -0.024 | [6] 0.033 | gandotinib -0.125 | [7] 0.053 | doramapimod 0.016 | ispinesib -0.058

USP34 (UniProt Q70CQ2)
inactive: [1] 0.021 | filanesib 0.011 | zotarolimus -0.03 | idasanutlin -0.239 | alisertib 0.021 | [2] 0 | gefitinib -0.024 | [3] -0.073 | lapatinib 0.011 | pictilisib 0.135 | [4] -0.049 | crizotinib -0.142 | [5] 0.046 | [6] 0.051 | gandotinib -0.131 | [7] 0.118 | doramapimod -0.006 | ispinesib -0.007

UPRT (UniProt Q96BW1)
inactive: [1] -0.027 | filanesib -0.075 | zotarolimus 0.022 | idasanutlin 0.084 | alisertib -0.032 | [2] 0.044 | gefitinib 0.099 | [3] 0.043 | lapatinib 0.02 | pictilisib 0.066 | [4] 0.094 | crizotinib 0.036 | [5] 0.044 | [6] -0.044 | duvelisib 0.032 | gandotinib 0.061 | [7] 0.039 | doramapimod -0.046 | ispinesib -0.028

USP14 (UniProt P54578)
inactive: [1] 0.023 | filanesib -0.035 | zotarolimus 0.04 | idasanutlin -0.051 | alisertib -0.057 | [2] -0.008 | gefitinib 0.007 | [3] -0.043 | lapatinib 0.031 | pictilisib 0.026 | [4] 0.006 | crizotinib -0.023 | [5] 0.082 | [6] -0.037 | gandotinib -0.078 | [7] 0.076 | doramapimod 0.002 | ispinesib 0.017

UCK2 (UniProt Q9BZX2)
inactive: [1] -0.09 | filanesib -0.002 | zotarolimus -0.019 | idasanutlin 0.008 | alisertib -0.035 | [2] -0.006 | gefitinib 0.033 | [3] 0.065 | lapatinib -0.01 | pictilisib -0.03 | [4] 0.003 | crizotinib 0.041 | [5] 0.012 | [6] -0.041 | duvelisib 0.033 | gandotinib -0.057 | tozasertib 0.014 | [7] 0.006 | doramapimod -0.003 | ispinesib 0.027
